Values from PubChem BioAssay AID1508587 (Peter MacCallum Cancer Centre, 2020)
The deposit covers about 1,600 reagents; below is a random part of them. 623 of all reagents (39%) count as active. 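Calls are for each duplex; lactate ratios contain extreme outliers.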 Entries without a mark were called inactive. The numbers tell different reagents against one gene apart. Not all columns of the deposit are shown.

Screen: 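Knockdowns that add to vemurafenib's cut in melanoma glycolysis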 (follow-up of hits)
Cell system: human WM266.4 melanoma cells with a BRAF V600 mutation
Reagents: single siRNA against human genes, 25 nM
Time to read-out: 96 h
Conditions: vemurafenib 300 nM (about IC25), given 48 h after transfection for 48 h
Detection: 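Per-cell lactate from absorbance divided by DAPI nucleus counts, compared with and without vemurafenib, relative to non-targeting siRNA, mean of 2 replicates; nuclear counts also give cell number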
Direction: lactate per cell, drug vs no drug: higher = less drug-induced drop in lactate per cell; lactate per cell with vemurafenib: higher = more lactate per cell under drug
Call rule: 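a duplex is active when its lactate-per-cell ratio with versus without drug falls under 0.55, i.e. 2 SD below non-targeting; a gene is confirmed if 2 or more of 4 duplexes pass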

PM20D2 #1 showed lactate per cell, drug vs no drug 0.67; lactate per cell with vemurafenib 0.77. PM20D2 #2 gave lactate per cell, drug vs no drug 0.34 (active); lactate per cell with vemurafenib 0.4. Depletion of PM20D2 #3 gave: lactate per cell, drug vs no drug 0.64; lactate per cell with vemurafenib 0.78. After knock-down of PM20D2 #4 the results were lactate per cell, drug vs no drug 0.94; lactate per cell with vemurafenib 1.35. Against RFC3 #1, the values are lactate per cell, drug vs no drug 0.63; lactate per cell with vemurafenib 1.01. Depletion of RFC3 #2 came out at: lactate per cell, drug vs no drug 0.63; lactate per cell with vemurafenib 0.92.

RFC3 #3 showed lactate per cell, drug vs no drug 0.55; lactate per cell with vemurafenib 1.1. RFC3 #4 scored lactate per cell, drug vs no drug 0.69; lactate per cell with vemurafenib 1.96. Depletion of MFAP3 #1 came out at: lactate per cell, drug vs no drug 0.53 (active); lactate per cell with vemurafenib 1.27. MFAP3 #2 gave lactate per cell, drug vs no drug 0.74; lactate per cell with vemurafenib 1.78. Silencing of MFAP3 #3 resulted in: lactate per cell, drug vs no drug 0.78; lactate per cell with vemurafenib 1.08. For MFAP3 #4, the entry reads lactate per cell, drug vs no drug 0.74; lactate per cell with vemurafenib 1.17.

Silencing of RASGRP2 #1 came out at: lactate per cell, drug vs no drug 0.66; lactate per cell with vemurafenib 3.15. RASGRP2 #2 scored lactate per cell, drug vs no drug 0.3 (active); lactate per cell with vemurafenib 0.94. Against RASGRP2 #3, the values are lactate per cell, drug vs no drug 0.73; lactate per cell with vemurafenib 1.02. For RASGRP2 #4 the deposit lists lactate per cell, drug vs no drug 0.64; lactate per cell with vemurafenib 1.34. Against GPR158 #1, the entry reads lactate per cell, drug vs no drug 0.64; lactate per cell with vemurafenib 1.12. Against GPR158 #2, the entry reads lactate per cell, drug vs no drug 0.57; lactate per cell with vemurafenib 1.48.

Knock-down of GPR158 #3 resulted in: lactate per cell, drug vs no drug 0.59; lactate per cell with vemurafenib 0.67. For GPR158 #4, the values are lactate per cell, drug vs no drug 0.46 (active); lactate per cell with vemurafenib 1.92. Knock-down of ATP6AP1L #1 resulted in: lactate per cell, drug vs no drug 0.62; lactate per cell with vemurafenib 2.84. Against ATP6AP1L #2, the entry reads lactate per cell, drug vs no drug 0.66; lactate per cell with vemurafenib 0.99. Silencing of ATP6AP1L #3 came out at: lactate per cell, drug vs no drug 0.66; lactate per cell with vemurafenib 0.82. ATP6AP1L #4 showed lactate per cell, drug vs no drug 0.78; lactate per cell with vemurafenib 1.25.

TCP11 #1 scored lactate per cell, drug vs no drug 0.62; lactate per cell with vemurafenib 0.86. After knock-down of TCP11 #2, the record shows lactate per cell, drug vs no drug 0.56; lactate per cell with vemurafenib 1.15. TCP11 #3 gave lactate per cell, drug vs no drug 0.6; lactate per cell with vemurafenib 1.55. With knock-down of TCP11 #4 the results were lactate per cell, drug vs no drug 0.66; lactate per cell with vemurafenib 0.97.

2 entries from above, arranged by “lactate per cell, drug vs no drug”, lowest first.
RFC3 #1 → lactate per cell, drug vs no drug: 0.63; lactate per cell with vemurafenib: 1.01
PM20D2 #4 → lactate per cell, drug vs no drug: 0.94; lactate per cell with vemurafenib: 1.35
